Measured values reported in patent US10060892B2, “Tripodal nitrate receptor” (University of Oregon, priority 2013, dated 2018).

Assays:
Format in all cases: binding
[1] = 1H NMR titration with TBA nitrate in 10% DMSO-d6/CDCl3; settings: NO3^−; for Δδ(H^c): nitrophenyl proton H^c; for Δδ(H^d): nitrophenyl proton H^d; for Δδ(H^a): urea proton H^a; for Δδ(H^b): urea proton H^b
From the text: (§1) To simplify the mode of binding in these receptors, as well as to lower the association constant of nitrate and bromide to a measurable amount, other solvent systems were investigated. Low solubility of the tripodal receptors limited the solvent possibilities. We also aimed to maintain competition between binding of the anion and solvent molecules to provide further evidence for the strong binding of nitrate in competitive solvents, a critical feature for applications in environmental monitoring. […] In addition, DMSO is a strong hydrogen bond acceptor, thus a lower association constant would be expected. Initial upfield shifts, followed by downfield shifts of the urea protons were observed upon the addition of TBANO3 1 mM solutions of 1 in 2% DMSO-d6/CDCl3 and 5% DMSO-d6/CDCl3. The titration curves indicate a more complicated system than a 1:1 model; however, the data still could not be fit to a standard model. Raising the DMSO concentration to 10% DMSO-d6/CDCl3 decreased the overall change in chemical shift of the urea protons (FIG. 3), but a smooth binding curve is observed, indicating self-aggregation (and likely ion-pairing) is no longer occurring. As suspected, titrations of TBA salts of nitrate, bromide, chloride, and iodide fit to a 1:1 model when performed in 10% DMSO-d6/CDCl3 (Table 1).
(§2) Titrations in 10% DMSO-d6/CDCl3 were performed at a constant 1 mM concentration of 1. The change in chemical shift was monitored throughout the titration and fit to a 1:1 model using linear regression analysis. […] The binding constants of each anion investigated and the calculated total Δδ values based on the determined constant are presented in Table 2. The largest changes in chemical shift for each anion are observed in the urea protons of 1, H^a and H^b.
Similar to 1, host:guest complexes of 2 were investigated through 1H NMR spectroscopy titrations in 10% DMSO-d6/CDCl3. Titrations were performed at approximately 1 mM 2 with TBA salts of Cl^− and NO3^−. The urea protons (H^a and H^b), nitrophenyl protons (H^c and H^d), and core proton (H^core) were monitored throughout the titrations. For consistency, only H^a, H^b, H^c, and H^d were used to fit the data to a 1:1 model, as was done with 1. All changes in chemical shift began to level off near 1 equiv. of anion and are presented in Table 1 with the association constants corresponding to NO3^− and Cl^−. The values reported for H^a, H^b, H^c, and H^d are averages derived from the individual association constants of each titration, while the values for H^core are averaged from the observed changes during the titration. Replacing the fluorine atoms with hydrogens changes not only the electronics, but also the number of hydrogen bond donors. […] The large increase in Ka for Cl^− can be attributed to the addition of a hydrogen bond with H^core, assigned from the titration of 2 (FIG. 4a). […] The association constant for NO3^− with 2 trends with the noted correlation and indicates 2 may bind NO3^− by a similar mode as 1, but binds Cl^− through a different mode. More importantly, no significant shift of H^core occurs upon the addition of nitrate to 2 (FIG. 4b), thus there is no hydrogen bonding of the anion to H^core, indicating an anion-π interaction may still be the preferred mode of binding in spite of the more electron-rich arene. Three important results stem from the investigation of 2: nitrate selectivity is lost, the association constant of nitrate is diminished, and nitrate binds via a different mode than chloride.

[2] = 1H NMR titration with TBA chloride in 10% DMSO-d6/CDCl3; settings: Cl^−; for Δδ(H^c): nitrophenyl proton H^c; for Δδ(H^d): nitrophenyl proton H^d; for Δδ(H^a): urea proton H^a; for Δδ(H^b): urea proton H^b
[3] = 1H NMR titration with TBA bromide in 10% DMSO-d6/CDCl3; settings: Br^−
From the text: as §1, §2

[4] = 1H NMR titration with TBA iodide in 10% DMSO-d6/CDCl3; settings: I^−
From the text: as §1, §2

CC(C)(C)c1ccc(NC(=O)Nc2ccc([N+](=O)[O-])cc2)c(C#Cc2c(F)c(C#Cc3cc(C(C)(C)C)ccc3NC(=O)Nc3ccc([N+](=O)[O-])cc3)c(F)c(C#Cc3cc(C(C)(C)C)ccc3NC(=O)Nc3ccc([N+](=O)[O-])cc3)c2F)c1 [compound 1]
Δδ(H^c) [1]: 0.10 ppm
Δδ(H^d) [1]: −0.10 ppm
Δδ(H^a) [1]: 0.26 ppm
Δδ(H^b) [1]: 0.39 ppm
Δδ(H^c) [2]: 0.17 ppm
Δδ(H^d) [2]: −0.15 ppm
Δδ(H^a) [2]: 0.21 ppm
Δδ(H^b) [2]: 0.99 ppm
Δδ(H^c) ([3]; nitrophenyl proton H^c): 0.17 ppm
Δδ(H^d) ([3]; nitrophenyl proton H^d): −0.11 ppm
Δδ(H^a) ([3]; urea proton H^a): 0.16 ppm
Δδ(H^b) ([3]; urea proton H^b): 0.62 ppm
Δδ(H^c) ([4]; nitrophenyl proton H^c): 0.16 ppm
Δδ(H^d) ([4]; nitrophenyl proton H^d): −0.07 ppm
Δδ(H^a) ([4]; urea proton H^a): 0.12 ppm
Δδ(H^b) ([4]; urea proton H^b): 0.29 ppm

CC(C)(C)c1ccc(NC(=O)Nc2ccc([N+](=O)[O-])cc2)c(C#Cc2cc(C#Cc3cc(C(C)(C)C)ccc3NC(=O)Nc3ccc([N+](=O)[O-])cc3)cc(C#Cc3cc(C(C)(C)C)ccc3NC(=O)Nc3ccc([N+](=O)[O-])cc3)c2)c1 [compound 2]
Δδ(H^conc) ([1]; core proton): <0.01 ppm
Δδ(H^c) [1]: 0.12 ppm
Δδ(H^d) [1]: −0.06 ppm
Δδ(H^a) [1]: 0.19 ppm
Δδ(H^b) [1]: 0.27 ppm
Δδ(H^conc) ([2]; core proton): 0.31 ppm
Δδ(H^c) [2]: 0.21 ppm
Δδ(H^d) [2]: −0.07 ppm
Δδ(H^a) [2]: 0.12 ppm
Δδ(H^b) [2]: 0.97 ppm
